# Percent effect of library compounds

Chains of the proteins cited; added tags and fusions are not shown. Residues count along the entry.
UniProt P9WNZ1, whole entry: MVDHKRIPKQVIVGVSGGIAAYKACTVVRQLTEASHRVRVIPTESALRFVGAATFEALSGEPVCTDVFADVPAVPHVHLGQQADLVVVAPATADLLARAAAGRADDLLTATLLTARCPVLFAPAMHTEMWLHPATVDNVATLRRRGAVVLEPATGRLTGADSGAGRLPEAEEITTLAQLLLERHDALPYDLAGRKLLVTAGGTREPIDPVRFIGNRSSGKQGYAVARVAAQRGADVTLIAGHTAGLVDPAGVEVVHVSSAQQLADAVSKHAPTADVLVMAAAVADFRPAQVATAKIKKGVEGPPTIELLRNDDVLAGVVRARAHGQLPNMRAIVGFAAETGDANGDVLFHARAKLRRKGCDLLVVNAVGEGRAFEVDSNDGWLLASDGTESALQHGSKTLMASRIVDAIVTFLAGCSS
UniProt I6X8D2, whole entry: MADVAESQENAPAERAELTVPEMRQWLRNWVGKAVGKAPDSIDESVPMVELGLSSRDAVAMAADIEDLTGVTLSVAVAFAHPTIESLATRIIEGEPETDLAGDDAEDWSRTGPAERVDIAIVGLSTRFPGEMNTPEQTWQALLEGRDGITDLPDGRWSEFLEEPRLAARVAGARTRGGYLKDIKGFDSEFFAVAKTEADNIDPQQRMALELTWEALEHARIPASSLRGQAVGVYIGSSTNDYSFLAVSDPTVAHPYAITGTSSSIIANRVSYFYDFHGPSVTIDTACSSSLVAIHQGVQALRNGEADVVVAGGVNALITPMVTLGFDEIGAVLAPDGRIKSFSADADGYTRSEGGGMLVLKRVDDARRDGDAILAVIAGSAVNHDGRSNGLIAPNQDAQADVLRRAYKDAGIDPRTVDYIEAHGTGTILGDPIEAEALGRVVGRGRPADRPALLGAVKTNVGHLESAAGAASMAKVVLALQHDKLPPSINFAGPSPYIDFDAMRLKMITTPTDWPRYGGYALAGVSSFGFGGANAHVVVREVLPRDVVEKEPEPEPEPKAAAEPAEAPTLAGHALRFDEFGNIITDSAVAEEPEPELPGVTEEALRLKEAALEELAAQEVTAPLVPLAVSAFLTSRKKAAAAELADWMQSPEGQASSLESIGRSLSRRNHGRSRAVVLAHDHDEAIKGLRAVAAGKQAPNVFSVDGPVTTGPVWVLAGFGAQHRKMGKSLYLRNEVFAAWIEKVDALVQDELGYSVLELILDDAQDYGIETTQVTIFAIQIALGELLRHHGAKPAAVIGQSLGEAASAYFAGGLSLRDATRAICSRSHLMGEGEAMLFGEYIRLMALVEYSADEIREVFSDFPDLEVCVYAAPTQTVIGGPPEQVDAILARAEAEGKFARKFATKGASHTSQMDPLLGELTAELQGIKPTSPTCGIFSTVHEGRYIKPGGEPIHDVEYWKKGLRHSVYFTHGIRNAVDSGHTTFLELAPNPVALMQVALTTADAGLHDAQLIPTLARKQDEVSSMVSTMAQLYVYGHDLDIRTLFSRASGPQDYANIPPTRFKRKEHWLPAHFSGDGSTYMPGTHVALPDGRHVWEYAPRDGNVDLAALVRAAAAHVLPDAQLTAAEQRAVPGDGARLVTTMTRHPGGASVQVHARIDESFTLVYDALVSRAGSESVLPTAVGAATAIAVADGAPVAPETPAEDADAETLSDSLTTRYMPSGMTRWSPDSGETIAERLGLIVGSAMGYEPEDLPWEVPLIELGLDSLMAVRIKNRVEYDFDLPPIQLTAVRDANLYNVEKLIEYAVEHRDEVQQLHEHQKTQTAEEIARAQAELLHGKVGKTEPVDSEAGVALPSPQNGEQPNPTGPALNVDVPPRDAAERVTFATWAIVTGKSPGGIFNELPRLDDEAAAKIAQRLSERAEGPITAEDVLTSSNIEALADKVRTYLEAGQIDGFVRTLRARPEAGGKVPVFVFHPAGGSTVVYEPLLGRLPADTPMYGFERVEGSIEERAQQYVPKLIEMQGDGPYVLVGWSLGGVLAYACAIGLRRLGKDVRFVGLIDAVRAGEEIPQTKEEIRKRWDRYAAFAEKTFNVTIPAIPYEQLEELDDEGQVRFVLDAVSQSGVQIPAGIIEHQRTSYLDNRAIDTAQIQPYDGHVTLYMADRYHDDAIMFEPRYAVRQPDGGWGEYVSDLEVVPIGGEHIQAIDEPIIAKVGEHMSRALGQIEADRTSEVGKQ
UniProt P9WPC5, whole entry: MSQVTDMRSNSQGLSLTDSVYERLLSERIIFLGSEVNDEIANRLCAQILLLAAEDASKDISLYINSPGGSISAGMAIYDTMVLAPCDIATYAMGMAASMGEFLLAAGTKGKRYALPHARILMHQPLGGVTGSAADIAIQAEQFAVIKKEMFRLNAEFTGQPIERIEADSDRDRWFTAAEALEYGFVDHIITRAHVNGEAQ
UniProt P9WPC3, whole entry partner: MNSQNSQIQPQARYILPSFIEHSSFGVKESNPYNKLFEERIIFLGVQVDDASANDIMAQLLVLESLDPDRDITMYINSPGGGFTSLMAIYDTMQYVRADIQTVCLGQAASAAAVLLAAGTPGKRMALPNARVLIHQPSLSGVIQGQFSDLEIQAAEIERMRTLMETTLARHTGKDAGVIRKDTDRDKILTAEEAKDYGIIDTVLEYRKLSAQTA
UniProt Q4DA54, 1-478: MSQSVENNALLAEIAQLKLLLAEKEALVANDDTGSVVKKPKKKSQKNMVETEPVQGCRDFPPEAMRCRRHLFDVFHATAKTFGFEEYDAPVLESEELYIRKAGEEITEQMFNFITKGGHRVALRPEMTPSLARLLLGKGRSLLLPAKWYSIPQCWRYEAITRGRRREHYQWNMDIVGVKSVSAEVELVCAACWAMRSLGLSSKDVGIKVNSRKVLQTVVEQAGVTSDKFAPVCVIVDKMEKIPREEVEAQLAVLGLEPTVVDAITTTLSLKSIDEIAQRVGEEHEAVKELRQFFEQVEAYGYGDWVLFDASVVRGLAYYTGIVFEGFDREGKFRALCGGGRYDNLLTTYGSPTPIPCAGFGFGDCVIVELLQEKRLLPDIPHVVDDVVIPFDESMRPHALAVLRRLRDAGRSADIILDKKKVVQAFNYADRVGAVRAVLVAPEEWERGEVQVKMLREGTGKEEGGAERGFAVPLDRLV

Each number is a percent effect as filed.
The record does not define 0% and 100%; most values in the screen are far below 50% and negative numbers occur (in some assays of this library far below -100).
This is an unselected part of the compounds tested.
Two or more numbers in one place are separate tests of the same structure; such repeats can differ widely.
A dash means the value is not listed here; it may have been measured.

CoaBC: 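Coenzyme A biosynthesis protein CoaBC, Mycobacterium tuberculosis (UniProt P9WNZ1). Enzyme assay of CoaBC with a phosphate dye (Biomol Green) read at 650 nm. Concentration: 30 µM. Higher reads as stronger inhibition, judged from the few compounds that gave an IC50. Most strong results did not repeat in a second test. About 67,000 compounds were tested under these conditions; 0.06% (about 40) showed 50% or more at least once.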
Leishmania in macrophages: 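Cell assay of Leishmania donovani living inside macrophages; the read-out is not stated. Concentration: 30 µM. Direction is inferred from retests: higher values go with stronger inhibition. Of about 69,000 compounds tested this way, about 1,000 (1.5%) reached 50% or more in at least one test.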
Pks13 thioesterase: 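Polyketide synthase Pks13, Mycobacterium tuberculosis (UniProt I6X8D2). Enzyme assay of the thioesterase domain of polyketide synthase 13; the read-out is not stated. Compounds at 30 µM. Higher reads as stronger inhibition (inferred from which compounds were picked for retests). About 67,000 compounds were tested under these conditions; 0.46% (about 300) showed 50% or more at least once.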
ClpP1P2: 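Protease assay of ClpP1P2, read by the AMC dye that it sets free. Target: ClpP1P2, Mycobacterium tuberculosis (UniProt P9WPC5 and UniProt P9WPC3). Compounds at 50 µM. Higher reads as stronger inhibition, judged from the few compounds that gave an IC50. Most other retested compounds had strongly negative values. About 69,000 compounds were tested under these conditions; 0.015% (about 10) showed 50% or more at least once.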
TcHisRS: 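Histidine-tRNA ligase, Trypanosoma cruzi CL Brener (UniProt Q4DA54). Enzyme assay of histidyl-tRNA synthetase; the read-out is not stated. Compounds at 30 µM. Direction is inferred from retests: higher values go with stronger inhibition. Size under these conditions: about 69,000 compounds, about 31 of them at 50% or above in at least one test.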

structure | CoaBC | Leishmania in macrophages | Pks13 thioesterase | ClpP1P2 | TcHisRS
Cc1ccc(NC(=O)NCC2(N3CCOCC3)CCSC2)c(C)c1 (stereo not drawn) | 0.641% | 35.28% | -13.88% | -2.278% | 4.926%
CC(Cn1cccn1)NCc1nc(-c2ccccc2Cl)no1 (stereo not drawn) | 5.085% | 15.06% | 3.296% | -3.277% | 2.89%
COc1ccc(C(=O)N2CCC(Oc3ccc(C)cc3)(C(=O)O)CC2)o1 | -1.202% | 1.648% | -9.257% | -9.903% | 7.595%
Cc1[nH]ccc1C(=O)N1CCCC(c2ccc(C(=O)O)cc2)C1 (stereo not drawn) | 9.159% | -51.65% | -1.709% | -1.176% | 13.43%
CN1CCC(N(CCc2ccccc2)C(=O)c2ccc(C#N)cc2)CC1 | 1.816% | 24.57% | -8.474% | -23.15% | -0.9901%
O=C(NCc1ccccn1)[C@@H]1CC[C@@H]2[C@@H](CCN2c2ncc(F)cn2)O1 | 4.821% | - | 8.537% | -5.805% | 4.082%
CCN(CC(=O)N(C)C)C(=O)c1nc(C)n(-c2ccccc2Cl)n1 | 2.804% | 42.74% | -27.82% | -2.404% | 3.097%
O=C(CCc1ccco1)NS(=O)(=O)Cc1ccon1 | 2.016% | -4.02% | 1.245% | -11.61% | 10.61%
CC(C)c1cc(C(=O)N2C[C@H]3CC[C@@H]2CN(Cc2ccccn2)C3)no1 | 4.232% | - | -30.61% | -1.654% | -79.87%
CN1CC[C@H](c2nnc(-c3cncn3C)o2)C1 | 11.2% | 23.32% | 8.577% | -7.257% | 2.488%
CN1CCN(S(=O)(=O)c2cccc(F)c2)c2ccccc21 | 1.519% | 34.22% & 10.59% | 12.66% | -7.166% | 2.439%
COc1ncc(CN(CCCN2CCOCC2)Cc2ccc(C)o2)cn1.O=C(O)CC(O)(CC(=O)O)C(=O)O | - | 9.804% | - | - | -
CCc1nc(-c2cccc(C(=O)O)c2)no1 | -7.73% | -3.263% | -25.94% | 18.56% | 1.156%
CSc1[nH]nc(NC(=O)c2ccccc2)c1C#N | -2.41% | 15.6% | -15.83% | 5.466% | 0%
Cc1[nH]c(=O)c(C#N)cc1C(=O)N1C[C@@H](CN2CCCC2)C[C@H](CO)C1 | 3.509% | -13.37% | 6.557% | -16.78% | 3.306%
CCNC(=O)[C@@H]1C[C@H](NC(=O)c2cc(CC)n[nH]2)CN1Cc1ccsc1 | 1.788% | -22.79% | 7.099% | -8.462% | -3.636%
CC(CC(=O)N1CCCN(Cc2cscn2)CC1)n1cccc1 (stereo not drawn) | -1.816% | 6.588% | -25.86% | -0.7607% | 0%
O=C(NCc1ccc(Cl)s1)c1cc(CN2CCCC(O)C2)on1 (stereo not drawn) | 1.985% | -39.97% | -1.771% | -7.79% | 7.514%
Cc1nc(C(=O)N2CCCC(n3cncn3)C2)cs1 (stereo not drawn) | 2.089% | 2.969% | -2.696% | 6.251% | 5.639%
[H][C@@]12C[C@H](C(=O)N(C)C)[C@@]([H])(CN(S(=O)(=O)CC)C1)O2 | - | 11.51% | - | - | -
CC(NCCCC#N)c1ccc(S(C)(=O)=O)c(F)c1 (stereo not drawn) | 0% | -0.8803% | - | 10.64% | 0%
CCN(Cc1nc(COC)no1)C(=O)CCn1c(C)cc2ccccc21 | 11.41% | 2.887% | 14.17% | -5.984% | 8.995%
CC(=O)N1C[C@@H](F)[C@@H](OCc2nc3cc(C)c(C)cc3[nH]2)C1 | 11.26% | 16.85% | -27.03% | -3.278% | 2.174%
Cn1cc(-c2cc(C(=O)N3CCOCC3)c3ccc(F)cc3n2)cn1 | 5.951% | 3.364% | 19.53% | -8.363% | 7.826%
CC(C)NC(=O)CCNC(=O)c1cnc(Cc2ccc(F)cc2)s1 | 7.851% | 24.96% | -11.19% | 0.6097% | 10%
Cc1noc(C)c1CN1CC[C@H]2OCC[C@@H](C(=O)N3CCCO3)[C@@H]2C1 | 0.8883% | - | -10.53% | 2.007% | 0.5405%
O=C(Cc1cccc(F)c1)NCCNCC1CNc2ccnn2C1 (stereo not drawn) | -23.72% | 27.02% | -11.61% | -3.71% | 6.897%
O=C1NCCCCC1SCc1coc(-c2ccccc2)n1 (stereo not drawn) | - | 1.872% | -4.011% | -1.192% | 9.554%
CC(C)COC(=O)N1CCCN(Cc2nnc(C(C)(C)C)o2)CC1 | -0.641% | 19.12% | -32.97% | -8.367% | 3.941%
COc1ccc(C(CNS(=O)(=O)c2cn(C)nc2C)N2CCCC2)cc1 (stereo not drawn) | 1.675% | - | -9.518% | 26.21% | 5.747%
CCc1nc(CNC2CCCc3c2cnn3CC)cs1 (stereo not drawn) | - | -16.65% | -0.9208% | -1.21% | 7.895%
O=C(Nc1ccc(F)cc1)C1CNCCN1C(=O)CCO (stereo not drawn) | 1.238% | 5.864% | 6.652% | 5.571% | 1.205%
Cc1ccc(N2CCN(CC3CC3)C3(CCN(C(C)C)CC3)C2=O)cn1 | - | - | -27.13% | 4.426% | 3.797%
CC(=O)N(C)Cc1ncn2c1CN(C(=O)CC1CC1)CCC2 | 6.064% | 15.24% | 1.699% | 1.658% | 2.513%
CC(C)COC(=O)N1CC(=O)N(CCc2ccccc2)CC(O)C1 (stereo not drawn) | -0.2421% | -17.87% | -14.36% | 14.36% | 11.24%
Cc1ncc(C(=O)NCCNC(=O)c2ccccc2)s1 | 1.149% | 21.07% | 6.035% | -46.37% | 4.624%
Cc1nnc(CN(C)C2CCN(CCc3cccs3)C2)n1C (stereo not drawn) | 8.606% | 9.082% | -47.1% | 11.36% | 0%
CNC(=O)c1nc(COc2c(C)occc2=O)no1 | 0% | 11.81% | -5.982% | -4.483% | 10%
O=C(CC1CC1)N1CC[C@@H]2[C@H](CC1)N(Cc1cccnc1)CCS2(=O)=O | -0.4938% | - | -25.82% | 3.245% | 1.869%
Cn1nc(C(C)(C)C)cc1NC(=O)CSc1nnc[nH]1 | 5.769% | 25.28% | -75.83% | -3.217% | 1.97%

Repeated from the top, 4 entries:

{"structure": "Cc1ccc(NC(=O)NCC2(N3CCOCC3)CCSC2)c(C)c1", "stereo": "stereo not drawn", "CoaBC": 0.641, "Leishmania in macrophages": 35.28, "Pks13 thioesterase": -13.88, "ClpP1P2": -2.278, "TcHisRS": 4.926}
{"structure": "CC(Cn1cccn1)NCc1nc(-c2ccccc2Cl)no1", "stereo": "stereo not drawn", "CoaBC": 5.085, "Leishmania in macrophages": 15.06, "Pks13 thioesterase": 3.296, "ClpP1P2": -3.277, "TcHisRS": 2.89}
{"structure": "COc1ccc(C(=O)N2CCC(Oc3ccc(C)cc3)(C(=O)O)CC2)o1", "CoaBC": -1.202, "Leishmania in macrophages": 1.648, "Pks13 thioesterase": -9.257, "ClpP1P2": -9.903, "TcHisRS": 7.595}
{"structure": "Cc1[nH]ccc1C(=O)N1CCCC(c2ccc(C(=O)O)cc2)C1", "stereo": "stereo not drawn", "CoaBC": 9.159, "Leishmania in macrophages": -51.65, "Pks13 thioesterase": -1.709, "ClpP1P2": -1.176, "TcHisRS": 13.43}

The values are deposited in ChEMBL (CHEMBL3988442, “University of Dundee, Small-Polar-MMV Screening Library” (2021)).